Chains of the proteins cited; added tags and fusions are not shown. Residues count along the entry.
UniProt P14867, 28-456: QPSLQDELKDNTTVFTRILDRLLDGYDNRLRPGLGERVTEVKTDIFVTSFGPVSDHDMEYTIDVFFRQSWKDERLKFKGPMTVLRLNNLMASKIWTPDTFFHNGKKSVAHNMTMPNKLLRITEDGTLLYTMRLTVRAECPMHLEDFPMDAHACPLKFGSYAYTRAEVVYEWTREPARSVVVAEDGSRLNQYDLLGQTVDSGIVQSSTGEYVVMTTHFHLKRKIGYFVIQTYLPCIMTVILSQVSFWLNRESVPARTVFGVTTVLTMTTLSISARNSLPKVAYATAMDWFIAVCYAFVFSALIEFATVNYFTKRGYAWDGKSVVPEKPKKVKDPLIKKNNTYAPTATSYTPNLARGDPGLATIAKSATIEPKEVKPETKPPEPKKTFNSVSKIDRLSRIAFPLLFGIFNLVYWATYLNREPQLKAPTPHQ
UniProt P18507, 40-475: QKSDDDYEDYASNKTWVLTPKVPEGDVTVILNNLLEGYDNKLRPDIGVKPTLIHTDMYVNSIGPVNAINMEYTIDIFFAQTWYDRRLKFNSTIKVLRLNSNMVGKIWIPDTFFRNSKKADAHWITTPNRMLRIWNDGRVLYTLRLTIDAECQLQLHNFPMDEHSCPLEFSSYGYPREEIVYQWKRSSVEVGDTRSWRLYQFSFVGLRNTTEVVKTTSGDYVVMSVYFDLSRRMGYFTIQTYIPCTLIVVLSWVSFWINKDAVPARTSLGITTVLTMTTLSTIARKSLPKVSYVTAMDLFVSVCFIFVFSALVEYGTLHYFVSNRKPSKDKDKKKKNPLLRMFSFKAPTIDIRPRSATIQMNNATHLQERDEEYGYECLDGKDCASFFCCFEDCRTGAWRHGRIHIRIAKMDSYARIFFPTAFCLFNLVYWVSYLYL
UniProt P28472, 26-473: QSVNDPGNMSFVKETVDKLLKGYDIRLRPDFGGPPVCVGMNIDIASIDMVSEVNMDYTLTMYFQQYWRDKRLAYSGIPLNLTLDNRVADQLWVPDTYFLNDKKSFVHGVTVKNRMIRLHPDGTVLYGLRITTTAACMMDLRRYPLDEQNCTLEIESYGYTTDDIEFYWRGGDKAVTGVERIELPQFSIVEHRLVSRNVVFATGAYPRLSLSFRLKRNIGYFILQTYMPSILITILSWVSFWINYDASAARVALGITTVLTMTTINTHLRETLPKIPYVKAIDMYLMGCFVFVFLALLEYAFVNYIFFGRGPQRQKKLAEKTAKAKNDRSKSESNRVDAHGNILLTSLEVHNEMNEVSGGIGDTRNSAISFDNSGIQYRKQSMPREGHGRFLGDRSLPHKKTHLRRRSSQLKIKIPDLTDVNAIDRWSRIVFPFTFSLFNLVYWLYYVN

In publication PMC7006677 (Pharmacological reports : PR, 2020):

Molecular target: GABAA receptor (α1β3γ2L), α1 subunit (Homo sapiens, UniProt P14867+P18507+P28472)

## CN1C(=O)CN=C(c2ccccc2)c2cc(Cl)ccc21 [Diazepam]
  two-electrode voltage clamp; potentiation of EC5 GABA currents at 1 and 100 μM: ~ 1 μM
